The target in test [1] is T1, Escherichia coli RecR protein (E. coli) (UniProt P0A7H6).
T1 sequence: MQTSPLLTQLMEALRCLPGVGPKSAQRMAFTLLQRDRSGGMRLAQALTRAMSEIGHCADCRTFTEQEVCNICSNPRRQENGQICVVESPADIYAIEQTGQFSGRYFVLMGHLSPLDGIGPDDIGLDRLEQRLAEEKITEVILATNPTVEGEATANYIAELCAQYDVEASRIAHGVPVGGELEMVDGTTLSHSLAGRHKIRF
Briefly: condition: P15 (50 μM) titrated into RecR (8 μM monomer); ITC; blank titration: P15 (50 μM) titrated into RecR alone (8 μM monomer), buffer BTP, pH 8.0, 25°C; both purified.

In another test the target is T2, E. coli RecR tetramer (E. coli, UniProt P0A7H6 1-201).
T2 construct: RecR, E. coli; tetramer 87.8 kDa; Same preparation as m2; the tetrameric state, which is the one found in complexes with RecO; also called RecR4; R4; source: E. coli BL21 Rosetta 2(DE3)pLysS, purified (Ni-NTA)
T2 sequence (looked up): T1 sequence
The experiment in a line: AUC; sedimentation velocity, RecR (2 μM monomer) with excess RecO (4 and 6 μM) and P15 (24 and 36 μM, 6-fold over RecO), buffer BTP (pH 8.0), 25°C; both purified.

Test [2] addresses T3, Escherichia coli RecO protein (E. coli, UniProt P0A7H3 1-242).
T3 chain: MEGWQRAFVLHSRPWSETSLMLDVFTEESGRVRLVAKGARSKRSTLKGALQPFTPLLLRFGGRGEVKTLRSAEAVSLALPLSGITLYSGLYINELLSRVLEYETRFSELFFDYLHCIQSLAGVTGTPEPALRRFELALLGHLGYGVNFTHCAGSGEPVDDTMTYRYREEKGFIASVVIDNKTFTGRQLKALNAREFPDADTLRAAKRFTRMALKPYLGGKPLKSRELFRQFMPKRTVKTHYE
Briefly: AUC; sedimentation velocity of RecO alone, 1.5-8 μM, buffer BTP (pH 8.0), 25°C, 42 000 rpm, 230 nm; both purified.

Test [3] concerns the target T3, Escherichia coli RecO protein. The experiment in a line: AUC; sedimentation equilibrium of RecO alone, 4 μM, buffer BTP (pH 8.0), 25°C, 20 000, 25 000 and 30 000 rpm; one-species model; both purified.

This passage reports binding results from PMC7913777, “Allosteric effects of SSB C-terminal tail on assembly of E. coli RecOR proteins” (Nucleic Acids Research, 2021).

Results are given in words; binding and its absence hold for the method and conditions named. Some binding calls cover weakened binding; strength is not graded here.

B1: P15 peptide (the 15 C-terminal amino acids of E. coli SSB) (peptide)
peptide: PSNEPPMDFDDDIPF
notes: the 15 C-terminal amino acids of E. coli SSB; also called SSB-Ct peptide; SSB C-terminal acidic tip peptide; source: bought: WatsonBio
B1: the binding entry in test [1] is recorded as “no binding”.

B2: RecO–P15 complex (complex, E. coli)
chain: T3 chain
peptide: PSNEPPMDFDDDIPF
notes: RecO, E. coli; as m1; the 15 C-terminal amino acids of E. coli SSB; as m3; 29.1 kDa; also called RecO in the presence of a 6-fold molar excess of P15; source: RecO from E. coli BL21(DE3)pLysS, purified; P15 bought: WatsonBio; mixed with a six-fold molar excess of P15 over RecO; copies: 1 + 1
For the molecule B2, the binding entry with E. coli RecR tetramer is given as “binds”.

B3: Escherichia coli RecO protein (protein, UniProt P0A7H3 1-242)
chain: T3 chain
As for B3, the binding entry in test [2] is recorded as “no binding (tested: 8 μM)”; in test [3], “no binding (tested: 4 μM)”.
